Measured values reported in publication PMC4549061.
Results are given in words; binding and its absence hold for the method and conditions named. In cells and extracts the contact can be indirect.

The chains behind the UniProt entries cited, without tags or fusion partners. Where a name states a change or a piece, a line headed by the entry shows the natural chain unless it says otherwise.
UniProt Q04735: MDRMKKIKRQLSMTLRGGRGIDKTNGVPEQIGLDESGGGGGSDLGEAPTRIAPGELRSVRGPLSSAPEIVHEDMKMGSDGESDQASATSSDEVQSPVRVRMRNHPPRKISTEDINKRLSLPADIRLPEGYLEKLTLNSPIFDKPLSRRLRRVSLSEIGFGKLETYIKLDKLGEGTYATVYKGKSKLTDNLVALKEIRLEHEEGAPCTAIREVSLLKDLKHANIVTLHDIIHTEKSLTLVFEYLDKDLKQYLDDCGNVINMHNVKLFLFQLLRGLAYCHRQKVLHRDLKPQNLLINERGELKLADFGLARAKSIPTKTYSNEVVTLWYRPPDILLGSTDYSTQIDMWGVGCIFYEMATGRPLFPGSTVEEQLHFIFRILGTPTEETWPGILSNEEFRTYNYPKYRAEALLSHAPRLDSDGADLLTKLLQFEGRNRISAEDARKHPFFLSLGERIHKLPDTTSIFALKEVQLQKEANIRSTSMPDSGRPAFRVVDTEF
UniProt D3YUJ3: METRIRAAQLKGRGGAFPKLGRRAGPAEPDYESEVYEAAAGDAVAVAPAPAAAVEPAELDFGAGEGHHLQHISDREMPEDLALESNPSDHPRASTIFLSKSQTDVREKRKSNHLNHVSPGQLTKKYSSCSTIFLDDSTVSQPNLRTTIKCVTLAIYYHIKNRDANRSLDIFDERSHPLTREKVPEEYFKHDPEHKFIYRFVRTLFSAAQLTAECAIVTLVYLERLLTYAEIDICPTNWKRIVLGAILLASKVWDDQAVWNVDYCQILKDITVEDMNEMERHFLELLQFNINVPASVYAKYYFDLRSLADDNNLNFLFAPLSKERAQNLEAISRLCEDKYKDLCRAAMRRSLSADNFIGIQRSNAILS

Biological target: CDK16-Flag PCTAIRE mutant (PCTAIRE was mutated to ACAAIAA) (mouse) (UniProt Q04735)
Assay: co-IP; HEK293T cells co-transfected with HA- and Flag-tagged plasmids; lysed in IP buffer (150mM NaCl, 50mM Tris, 1mM EGTA, 0.2% NP-40); anti-HA or anti-Flag conjugated agarose, 4°C, 2 hours; western blot

binding: no binding
Substance: CCNYL1-HA (N-terminal HA-tagged Cyclin Y-like 1) (from UniProt D3YUJ3 1-367)
